Measurements from “University of Dundee, Small-Polar-MMV Screening Library” (2021), ChEMBL document CHEMBL3988442.

The chains behind the UniProt entries cited, without tags or fusion partners.
UniProt E9BF75, entry or part of it: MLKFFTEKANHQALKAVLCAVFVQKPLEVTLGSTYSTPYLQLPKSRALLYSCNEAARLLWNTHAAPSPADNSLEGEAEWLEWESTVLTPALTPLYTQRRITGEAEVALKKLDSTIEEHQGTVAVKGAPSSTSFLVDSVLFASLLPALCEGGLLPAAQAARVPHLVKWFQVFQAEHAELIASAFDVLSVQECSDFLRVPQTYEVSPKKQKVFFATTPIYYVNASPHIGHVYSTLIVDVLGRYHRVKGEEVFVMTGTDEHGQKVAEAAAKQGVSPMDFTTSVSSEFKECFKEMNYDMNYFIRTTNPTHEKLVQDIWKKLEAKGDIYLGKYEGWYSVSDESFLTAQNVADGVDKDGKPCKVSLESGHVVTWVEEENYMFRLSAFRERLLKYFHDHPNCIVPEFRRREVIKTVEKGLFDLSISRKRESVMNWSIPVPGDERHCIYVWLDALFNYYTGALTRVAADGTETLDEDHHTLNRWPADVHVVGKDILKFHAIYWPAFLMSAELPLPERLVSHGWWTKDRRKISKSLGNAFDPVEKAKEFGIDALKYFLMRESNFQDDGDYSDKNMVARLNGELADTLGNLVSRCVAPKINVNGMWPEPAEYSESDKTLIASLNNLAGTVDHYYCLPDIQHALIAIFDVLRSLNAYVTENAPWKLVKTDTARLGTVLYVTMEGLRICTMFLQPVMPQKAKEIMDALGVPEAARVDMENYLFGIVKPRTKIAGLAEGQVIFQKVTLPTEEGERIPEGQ

Mtb heat-shock: 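Assay on Mycobacterium tuberculosis, filed only as a heat shock assay from Cornell; the read-out is not stated. The concentration is filed as 10 mM, unlikely as a test dose, so the dose is not known. The record gives no direction; compounds that gave an IC50 in retests scored well above the rest, so higher reads as stronger inhibition. Size under these conditions: about 69,000 compounds, about 930 of them at 50% or above in at least one test.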
Mtb growth Cornell: 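Whole-cell assay for inhibitors of Mycobacterium tuberculosis growth, labelled Cornell in the record; the read-out is not stated. The concentration is filed as 10 mM, unlikely as a test dose, so the dose is not known. Higher means stronger inhibition (inferred from two other growth screens of the library). Of about 53,000 compounds tested this way, about 900 (1.7%) reached 50% or more in at least one test.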
LdMetRS: 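Primary screen of methionyl-tRNA synthetase; the read-out is not stated. Target: Methionyl-tRNA synthetase (putative), Leishmania donovani (UniProt E9BF75). The test concentration is not given. Values are per cent inhibition. Size under these conditions: about 68,000 compounds, about 24 of them at 50% or above in at least one test.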

Results are percentages, as filed.
The controls that fix the scale are not given in the record; negative values are as filed.
The compounds are a random part of those screened.
A dash means the value is not listed here; it may have been measured.

| SMILES | Mtb heat-shock | Mtb growth Cornell | LdMetRS |
|---|---|---|---|
| `Cc1cc(N2CCCC(N(C)C)C2)n2nc(C)cc2n1` (stereo unspecified) | -21.73 | - | 15.33 |
| `O=C(O)C(F)(F)F.[H][C@@]12CN(c3ccc(C)nn3)C[C@@H](C(=O)NCC3CC3)[C@]1([H])CCO2` | -1.349 | 17.81 | - |
| `CCn1ccnc1CN1CCCN(C(=O)c2ccsc2)CC1` | -0.7038 | - | 15.79 |
| `O=C(O)C(F)(F)F.[H][C@]12CCC(=O)N(Cc3ccncc3)[C@@]1([H])CCN2C(=O)Cc1ccccc1` | -22.84 | 26.91 | - |
| `Cc1ccc(N2CCC3(CCN(C(=O)c4ccsc4)CC3)CC2)nn1` | -31.39 | - | 8.75 |
| `O[C@H]1[C@H](NCCSc2ccccn2)c2ccccc2C12CCNCC2` | -7.776 | 17.68 | 19.93 |
| `Cc1cnccc1NCCNC1CCSCC1` | -18.44 | -8.045 | 16.06 |
| `Cc1nc(Nc2nncs2)cc(C2CCCN2)n1` (stereo unspecified) | - | - | 6.522 |
| `CCOC(=O)CSc1nnc([C@@H](N)CC(C)C)o1.Cl` | -13.08 | 44.45 | - |
| `NC(=O)C1CCC(NC(=O)COc2ccc(Cl)c(Cl)c2)CC1` (stereo unspecified) | 12.83 | 11.16 | 17.07 |
| `CC(NCCn1cccn1)c1ccccc1Cl` (stereo unspecified) | -21.23 | -32.06 | 2.29 |
| `O=C1N[C@@H]2CCN(C(=O)N3CCOCC3)[C@@H]2C(=O)N1Cc1ccccc1` | - | - | 4.396 |
| `CC(C)Oc1ccc(CNC(=O)CN(C)S(C)(=O)=O)cc1F` | 17.49 | - | 15.56 |
| `O=C(O)C(F)(F)F.O=C(O)C(F)(F)F.[H][C@@]12COC[C@@H](CC(=O)NCC3CC3)[C@]1([H])CN(Cc1cccnc1)C2` | 2.568 | 3.548 | - |
| `CN(C)c1ccc(-c2cccc(-c3ccn(CCCO)n3)c2)nn1` | 20.74 | 24.82 | 24.32 |
| `Cc1cc(-c2cnc(N3CCN(C)CC3)nc2-c2ccc(C)s2)on1` | 22.59 | 23.04 | 16.78 |
| `CN(CCCOc1ccccc1)Cc1nc2c(cnn2C)c(=O)[nH]1` | -3.727 | 27.35 | 18.16 |
| `CN(C)C1COC2(CCN(S(=O)(=O)c3ccc(F)cc3)CC2)C1.O=C(O)C(F)(F)F` (stereo unspecified) | 4.327 | -0.8962 | - |
| `CCOCC1c2c(cnn2C)CCN1C(=O)c1cc(C)on1.O=C(O)C(F)(F)F` (stereo unspecified) | 17.39 | -6.724 | - |
| `CC(Oc1ccc2c(c1)OCO2)C(=O)N1CCC(N2CCOCC2)CC1` (stereo unspecified) | 16.59 | 1.615 | 10.84 |
| `CNC(=O)[C@@H]1COC[C@H]2CN(C(=O)c3ccc(C)c(C)c3)C[C@H]21` | - | - | 3.806 |
| `CCSCc1ccc(C(=O)N2CCCN(CC)CC2)cc1` | -9.04 | -18.95 | 14.61 |
| `CS(=O)(=O)NCC1CCCN(C(=O)c2cc3ccccc3o2)C1` (stereo unspecified) | 15.08 | 6.28 | 10.1 |
| `O=C(c1ccccc1)N1CCS(=O)(=O)[C@@H]2CCNCC[C@@H]21` | - | - | 1.748 |
| `CN(C)CC1(O)CCCN(C(=O)Cn2nc3ccccc3n2)CC1` (stereo unspecified) | -151.7 | - | 5.136 |
| `[H][C@]12CCN(c3ncccn3)C[C@]1(COC)CC[C@@H](N1CCOCC1)C2` | 7.486 | 29.72 | - |
| `COCCOc1ncccc1CNCc1c(C)nn(C)c1N(C)C` | 12.56 | 87.98 | 9.15 |
| `CC(C)NC(=O)N1CCN(CC2CC2)CC2(CC(=O)N(C)C2)C1.O=C(O)C(F)(F)F` (stereo unspecified) | 4.618 | 16.77 | - |
| `O=C(O)C(F)(F)F.O=c1ccc2c(n1CC1CCOCC1)CCN(Cc1ccoc1)CC2` | -24.82 | -50.37 | - |
| `Fc1cc(Cl)cnc1N1CCCC(c2nccn2CC2CC2)C1` (stereo unspecified) | 10.86 | 4.723 | 11.04 |
| `Cc1n[nH]c(C)c1CC(=O)N1CCCN(C)C2(CCN(C)CC2)C1` | 1.096 | 0.287 | 1.736 |
| `CCN1C[C@H]2C3(CCN(C(=O)NC(C)C)CC3)CC[C@@]2(C(=O)N(C)C)C1` | - | - | 3.361 |
| `CNS(=O)(=O)c1ccc(CCC(=O)NCc2cccc(OC)c2)cc1` | -26.64 | 15.21 | 18.4 |
| `O=C(Nc1ccc2c(c1)OCCO2)c1ccc(=O)[nH]n1` | -18.13 | -29.38 | 9.346 |
| `[H][C@@]12CC[C@H](Oc3ccccc3Cl)[C@]1([H])CN(C(=O)CN(C)C)C2` | 9.201 | -29.89 | - |
| `CCc1ncc2c(n1)CN(Cc1nc(C)c(C)o1)CC2` | -2.524 | 0.3931 | 12.32 |
| `COc1ccc(CN2CCn3cc(Cn4cccn4)nc3C2)cc1` | - | - | 16.67 |
| `COc1ccc(C(CNC(=O)NCc2csc(C)n2)N(C)C)cc1` (stereo unspecified) | -24.37 | - | 8.939 |
| `CO[C@H]1CN(C(C)C)C[C@@H]1NC(=O)c1cc(-c2ccccc2F)n[nH]1` | 3.869 | - | 16 |
| `CN(Cc1cscn1)C1CCN(C(=O)OC(C)(C)C)CC1` | -22.19 | -9.624 | 4.124 |
| `Cc1cnc(C)c(N2CCC3(CCCN(C4CCOCC4)C3=O)C2)n1` (stereo unspecified) | 0.7689 | 25.29 | 15.95 |

Repeated from the top, 3 entries:

| SMILES | Mtb heat-shock | Mtb growth Cornell | LdMetRS |
|---|---|---|---|
| `Cc1cc(N2CCCC(N(C)C)C2)n2nc(C)cc2n1` (stereo unspecified) | -21.73 | - | 15.33 |
| `O=C(O)C(F)(F)F.[H][C@@]12CN(c3ccc(C)nn3)C[C@@H](C(=O)NCC3CC3)[C@]1([H])CCO2` | -1.349 | 17.81 | - |
| `CCn1ccnc1CN1CCCN(C(=O)c2ccsc2)CC1` | -0.7038 | - | 15.79 |